Data published in article PMC11815563.
No constants are given. Whether binding was seen depends on the method and setting. Binding seen in cells or lysates may run through a third protein. Some entries that bind do so weakly or less than the wild type.

By UniProt entry, the sequences of proteins in these tests, tags left out.
UniProt P40763: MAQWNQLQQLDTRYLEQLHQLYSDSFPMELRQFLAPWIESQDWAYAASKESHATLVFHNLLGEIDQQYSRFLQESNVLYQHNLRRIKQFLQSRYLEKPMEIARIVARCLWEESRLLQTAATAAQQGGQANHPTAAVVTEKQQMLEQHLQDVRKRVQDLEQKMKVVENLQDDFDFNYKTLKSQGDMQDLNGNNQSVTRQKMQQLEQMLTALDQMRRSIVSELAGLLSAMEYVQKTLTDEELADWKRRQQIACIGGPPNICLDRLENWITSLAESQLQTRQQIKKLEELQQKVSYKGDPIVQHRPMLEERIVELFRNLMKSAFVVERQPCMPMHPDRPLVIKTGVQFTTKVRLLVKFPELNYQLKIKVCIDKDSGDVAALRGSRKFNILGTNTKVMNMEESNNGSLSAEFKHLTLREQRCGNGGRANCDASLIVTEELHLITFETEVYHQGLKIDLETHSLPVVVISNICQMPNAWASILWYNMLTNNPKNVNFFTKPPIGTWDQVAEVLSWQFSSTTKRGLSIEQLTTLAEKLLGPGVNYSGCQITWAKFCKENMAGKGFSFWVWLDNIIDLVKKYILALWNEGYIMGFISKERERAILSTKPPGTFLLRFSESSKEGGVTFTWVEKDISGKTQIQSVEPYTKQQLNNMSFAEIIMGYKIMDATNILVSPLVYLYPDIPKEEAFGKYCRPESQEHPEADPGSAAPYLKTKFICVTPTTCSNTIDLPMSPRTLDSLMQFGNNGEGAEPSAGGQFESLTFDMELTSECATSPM
UniProt Q9HCL3: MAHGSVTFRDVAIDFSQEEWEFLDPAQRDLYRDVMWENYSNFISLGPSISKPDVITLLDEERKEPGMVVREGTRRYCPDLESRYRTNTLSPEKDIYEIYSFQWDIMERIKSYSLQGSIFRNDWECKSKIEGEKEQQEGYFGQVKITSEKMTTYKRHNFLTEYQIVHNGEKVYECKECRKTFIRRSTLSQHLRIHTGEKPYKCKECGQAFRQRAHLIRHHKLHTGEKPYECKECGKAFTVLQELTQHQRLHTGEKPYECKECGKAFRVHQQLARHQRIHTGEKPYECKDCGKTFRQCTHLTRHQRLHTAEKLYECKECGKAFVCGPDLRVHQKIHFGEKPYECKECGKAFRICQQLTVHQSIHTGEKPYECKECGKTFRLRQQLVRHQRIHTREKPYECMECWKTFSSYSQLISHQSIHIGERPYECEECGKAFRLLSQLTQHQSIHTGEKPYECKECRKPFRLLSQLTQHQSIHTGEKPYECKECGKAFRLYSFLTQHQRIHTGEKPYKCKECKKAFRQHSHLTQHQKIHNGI

Tests used:
His‐tagged STAT3 = His‐tagged STAT3 (UniProt P40763); experiment: co-IP; Flag‐ZFP14 and His‐STAT3 co‐transfected in HEK293T cells; immunoprecipitation with His‐tag antibody; RIPA lysis, A/G magnetic beads, western blot
Flag‐tagged ZFP14 = Flag‐tagged ZFP14 (UniProt Q9HCL3); experiment: co-IP; Flag‐ZFP14 and His‐STAT3 co‐transfected in HEK293T cells; immunoprecipitation with Flag‐tag antibody; RIPA lysis, A/G magnetic beads, western blot
[1] = biological target: signal transducer and activator of transcription 3 (STAT3), endogenous (human (endogenous in Caki-1 and ACHN)) (UniProt P40763); experiment: co-IP; endogenous proteins in Caki‐1 and ACHN cells; lysis in RIPA buffer with 1% PMSF and 1% protease inhibitor; antibody and A/G magnetic beads; western blot; IgG as control antibody

Flag‐tagged ZFP14 (from UniProt Q9HCL3 1-533)
binding (His‐tagged STAT3): binds

His‐tagged STAT3 (from UniProt P40763 1-770)
binding (Flag‐tagged ZFP14): binds

zinc finger protein 14 (ZFP14), endogenous (from UniProt Q9HCL3 1-533)
binding [1]: binds
